# Some of the results follow.
# Test system: T1, CTL2-GFP (C. trachomatis L2/434/Bu, GFP-expressing)
# T1 construct: L2/434/Bu, GFP-expressing
# Parameters: species or system HeLa; Intracellular C. trachomatis growth in HeLa cells, bulk GFP fluorescence relative to DMSO
# Conditions: bulk GFP, single well; 28.5 h, 10 µM; inhibitor
row,SMILES,% of control remaining [%]
1,Cc1cnc(CNC(=O)N2CCN(c3cc(C(F)(F)F)ccn3)CC2)cn1 [CBK162320],135.922
2,NC(=O)CSc1nnc2ccc3ccccc3n12 [CBK287794],71.2864
3,Cc1ccc(NC(=O)CN2C(=O)S/C(=C\c3cc(C)n(-c4ccc(C(=O)O)cc4)c3C)C2=O)cc1 [CBK264465],100
4,O=C(Nc1cc2ccccc2c(Br)n1)c1ccc(C(F)(F)F)cc1[N+](=O)[O-] [CBK063299],103.139
5,Cc1cccnc1C(NC(=O)C1CCN(C/C=C/c2ccco2)CC1)c1ccc(Cl)cc1 (stereo not shown) [CBK148201],110.428
6,Cc1nn2c(-c3cccc(NC(=O)CN4CCOCC4)c3)nnc2c2ccccc12 [CBK268383],155.139
7,O=C(c1n[nH]c2ccccc12)N1CCc2ccccc21 [CBK200282],134.602
8,O=C(Nc1ccc(Cc2ccncc2)cc1)c1ccc(-c2cc3ccccc3oc2=O)cc1 [CBK268952],89.7756
9,Cc1cccc(-c2csc3c(=O)[nH]c(N4CCC(C(=O)NCCN(C)C)CC4)nc23)c1 [CBK215633],129.841
10,CCS(=O)(=O)Nc1ccc(C2=NN(S(=O)(=O)c3ccc(F)cc3)C(c3ccccc3C)C2)cc1 (stereo not shown) [CBK269161],162.001
11,CC(C)C[C@@H](C(=O)N1CCC(C(=O)O)CC1)n1c(=O)[nH]c2ccccc2c1=O [CBK286762],114.258
12,Cn1nccc1C(=O)N[C@H]1C2CCCCC2[C@@H]1c1ccccc1 (stereo partly shown) [CBK285127],130.822
13,Cc1cc(C)n(CCn2cc(-c3ncc[nH]3)nn2)c(=O)n1 [CBK307554],126.403
14,COc1ccccc1Cc1cccc(C2CCCN2C(=O)Cc2c[nH]c3ccccc23)n1 (stereo not shown) [CBK286139],93.4963
15,O=c1[nH]c(=O)c2cc(S(=O)(=O)Nc3ccccc3-c3ccccc3)ccc2[nH]1 [CBK286374],112.999
16,Cc1cc(S(=O)(=O)Nc2ccccc2-c2nnnn2C(C)C)c(C)o1 [CBK306259],86.157
17,CCOC(=O)c1cnn(C2CCCN(Cc3cccs3)C2)c1 (stereo not shown) [CBK305121],127.277
18,Cc1cc(CNC(=O)CCc2c(C)nc3nc(N)nn3c2C)ccc1F [CBK306212],119.911
19,CC(C)CNC(=O)c1cc([C@H]2CC[C@H](CNC(=O)Cn3cccn3)CC2)nc2ccccc12 [CBK285860],111.726
20,c1ccc(CC(Cc2nc3ccccc3[nH]2)c2nc3ccccc3[nH]2)cc1 (stereo not shown) [CBK150452],120.888
21,Cc1nc2ccccn2c1-c1csc(N)n1 [CBK288628B],89.1862
22,O=S(=O)(c1ccccc1)C1CC1 [CBK023184],134.781
23,CC(=O)NCc1cccc(-c2cc(C(=O)O)cnc2-c2ccc(Cl)cc2)c1 [CBK156194],103.279
24,O=[N+]([O-])c1ccc(N2CCN(S(=O)(=O)c3ccc4ccccc4c3)CC2)cc1NC1CC1 [CBK264361],120.424
25,O=C(CSCc1ccccc1)Nc1ccc(O)cc1C(=O)O [CBK126817],97.1617
26,O=C(NCc1ccc(-c2csnn2)cc1)c1cccc(C(F)(F)F)c1 [CBK149293],122.775

# Fetched one by one from the list above, 4 records:
row,SMILES,% of control remaining [%]
3,Cc1ccc(NC(=O)CN2C(=O)S/C(=C\c3cc(C)n(-c4ccc(C(=O)O)cc4)c3C)C2=O)cc1 [CBK264465],100
14,COc1ccccc1Cc1cccc(C2CCCN2C(=O)Cc2c[nH]c3ccccc23)n1 (stereo not shown) [CBK286139],93.4963
11,CC(C)C[C@@H](C(=O)N1CCC(C(=O)O)CC1)n1c(=O)[nH]c2ccccc2c1=O [CBK286762],114.258
16,Cc1cc(S(=O)(=O)Nc2ccccc2-c2nnnn2C(C)C)c(C)o1 [CBK306259],86.157

# Next entries:

row,SMILES,% of control remaining [%]
1,O=C(NCCCO)C1CCCN(S(=O)(=O)c2ccc3ccccc3c2)C1 (stereo not shown) [CBK270141],154.836
2,CCOCCCNC(=O)c1cnn2c(C)c(Cc3cccc(OC)c3)c(C)nc12 [CBK162056],127.573
3,O=C1COc2ccccc2C/C=C/CC2(CCN(C(=O)c3cncc(O)c3)CC2)C(=O)NCCN1 [CBK291989],161.244
4,CCCc1cc(C(=O)NC2(CN3CCCC3)CCCCC2)[nH]n1 [CBK282464],137.049
5,NC(=O)C1(Cc2ccc(-c3ccccc3)cc2)CCN(C(=O)Cc2ccccc2)CC1 [CBK285771],79.6177
6,COc1cccc(C(NC(=O)c2cccc(Cn3ccnc3C)c2)c2ccccc2)c1 (stereo not shown) [CBK285620],88.9328
7,O=C(c1cc(F)c(F)cc1F)N1CCC2(CCCN(CCN3CCOCC3)C2)C1 (stereo not shown) [CBK132015],117.447
8,O=C(CO)N1CC2(CCN(Cc3cccc4cccnc34)CC2)c2ccccc21 [CBK137004],80.0776
9,COc1ncc(-c2cncc(N3CCN(c4ccccc4C#N)CC3)n2)c(OC)n1 [CBK037872],114.993
10,NNC(=O)CCc1nc2cc(O)ccc2[nH]1 [CBK263633],118.963
11,Cc1nc(CNC(=O)NC2CCCN(c3ncccn3)C2)cs1 (stereo not shown) [CBK305640],101.869
12,CCOC(=O)c1[nH]c2ccccc2c1NC(=O)c1ccc(OC(F)(F)F)cc1 [CBK160157],118.144
13,c1ccc(-c2cc(CC3(NCc4cc5ccccc5o4)COC3)no2)nc1 [CBK289239],133.664
14,Clc1ccc(COc2nccnc2N2CCN(Cc3ccc4c(c3)OCO4)CC2)cc1Cl [CBK083078T],87.9479
15,Cc1nc2c(c(=O)[nH]1)CN(CC1CCCCC1)CC2 [CBK283947],114.142
16,COc1ncc(-c2nccnc2NCCc2ccncc2)c(OC)n1 [CBK038074],151.496
17,COc1ccc(Cc2c(C)nc3c(C(=O)NCCSC)cnn3c2C)cc1 [CBK162191],113.671
18,CCNS(=O)(=O)c1ccc(NC(=O)Nc2cc(C)ccc2OC)cc1 [CBK266850],107.248
19,N#Cc1cccnc1N1CCC(NC(=O)Cn2cccnc2=O)CC1 [CBK307275],122.995
20,CN(C)CCCNC(=O)c1cc(-c2ccc(Cl)cc2)on1 [CBK116557],147.843
21,Cc1ccc(S(=O)(=O)CC(=O)Nc2ncccn2)cc1 [CBK269800],130.546
22,N#Cc1ccc2nc([C@H]3CCN(C(=O)c4ccccc4)C3)[nH]c2c1 [CBK289379],127.975
23,CCNC(=O)N1C[C@@H]2OCC(=O)N(Cc3ccccc3)[C@@H]2C1 [CBK289679],144.488
24,CCN(CC)C(=O)CN1CCN(c2nccnc2OCc2cccnc2)CC1 [CBK083140],100.921
25,CC(NC(=O)c1ccc(F)cc1Cl)c1ccccc1 (stereo not shown) [CBK270317],117.007
26,Cc1c(NC(=S)NCCCN2CCOCC2)c(=O)n(-c2ccccc2)n1C [CBK008032],133.536

row,SMILES,% of control remaining [%]
1,CCOC(=O)N1CCC(NC(=O)N2CCN(c3ccc(F)cc3)CC2)CC1 [CBK156429],98.0239
2,CC(SC1CCc2ccccc2NC1=O)C(=O)O (stereo not shown) [CBK286652],131.677
3,O=C1NC[C@@H](Cc2ccccc2)NC(=O)C2(C/C=C/COc3ccccc31)CCN(C(=O)CN1CCCC1)CC2 [CBK292184],111.596
4,Cc1nc(C)c(C(=O)NCC(C)(C)N2CCCCC2)o1 [CBK281866],103.668
5,O=C1N[C@@H]2CCN(C(=O)COc3cccnc3)C[C@@H]2CCCCCOc2ccccc21 [CBK292037],138.776
6,Cc1cc(S(=O)(=O)Nc2cccc(C(=O)O)c2)c(C)c(S(=O)(=O)c2ccccc2)c1 [CBK263227],121.981
7,CN(C)c1cccc(COc2cncc(N3CCNCC3)n2)c1 [CBK200004],85.9799
8,CNC(=O)C1(Cc2cccc(-c3cccs3)c2)CCN(C(=O)CCc2ccccc2)CC1 [CBK285913],115.119
9,CCCc1cnc(N2CCN(CC(=O)Nc3ccc(C(C)=O)cc3)CC2)nc1 [CBK086194],134.697
10,COC(=O)C(C)CN1CC2CCC(CC2)C1 (stereo not shown) [CBK022785C],132.629
11,O=c1[nH]c(NCCCO)nc2sc3c(c12)CCCC3 [CBK025611],109.73
12,Cc1ccc2nsnc2c1NC(=O)CN1CCC(C)CC1 [CBK269568],148.228
13,Cc1ccc(S(=O)(=O)N(CC(=O)Nc2ccccc2-c2ccccc2)c2cccc(C)c2)cc1 [CBK265988],100
14,O=C(Cn1cnc2c(oc3ccccc32)c1=O)Nc1ccc2c(c1)OCO2 [CBK287557],103.951
15,C1=CCC(CN(CCCn2ccnc2)CC2CCOC2)CC1 (stereo not shown) [CBK283217],135.028
16,Cc1nnc(SCc2cc(=O)nc(NC(=N)Nc3cccc(Cl)c3)[nH]2)s1 [CBK266318],136.459
17,Cc1ccc(C(CNCc2cn(C)nc2-c2cccnc2)N(C)C)cc1 (stereo not shown) [CBK305343],132.002
18,Cc1cc(COc2ccnc(N3CCCN(CC(N)=O)CC3)n2)no1 [CBK084036],121.465
19,N#CCCCN1CCC(Oc2nccnc2OCc2ccc(-c3ccccc3)cc2)CC1 [CBK161566],95.3679
20,Cc1cccc(-c2ncc(C(=O)NCc3csc4ccc(Cl)cc34)cc2-c2ccncc2)c1 [CBK036770],118.98
21,CC(=O)Nc1ccc(Nc2cc(-c3ccco3)ncn2)cc1 [CBK090719],198.015
22,Cc1cc(C)c2nc(NC(=O)c3ccc(=O)n(CC(=O)NC4CCCCC4)c3)sc2c1 [CBK285980],108.356
23,CC(=O)Nc1ccc(-c2ccc(C(=O)NCC3COc4ccccc4O3)cn2)cc1 (stereo not shown) [CBK158832],101.384
24,Cn1nc(-c2cccs2)cc1[C@H]1CN2CC[C@H]1C[C@@H]2CNC(=O)c1ccco1 [CBK289100],124.347
